The values that follow are results of earlier work, collected in patent EP2550959A1 (priority 2011, dated 2013).

Sequences of proteins named here, by UniProt entry; tags and fusion partners are left off. Residues count along the entry.
UniProt F1SMV8, 1-481: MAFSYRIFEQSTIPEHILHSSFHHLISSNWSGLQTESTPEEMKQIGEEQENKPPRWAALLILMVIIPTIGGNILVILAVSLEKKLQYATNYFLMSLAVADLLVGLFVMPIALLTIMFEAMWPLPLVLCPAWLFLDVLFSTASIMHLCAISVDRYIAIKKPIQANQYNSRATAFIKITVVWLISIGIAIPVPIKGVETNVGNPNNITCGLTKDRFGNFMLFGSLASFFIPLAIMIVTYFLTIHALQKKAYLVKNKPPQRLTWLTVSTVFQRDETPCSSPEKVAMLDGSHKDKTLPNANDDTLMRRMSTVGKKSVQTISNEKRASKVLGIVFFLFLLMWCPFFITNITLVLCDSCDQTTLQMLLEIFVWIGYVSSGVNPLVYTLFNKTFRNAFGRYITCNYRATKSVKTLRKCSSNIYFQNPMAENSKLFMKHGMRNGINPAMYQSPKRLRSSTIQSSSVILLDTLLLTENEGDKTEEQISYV
UniProt P30994, whole entry: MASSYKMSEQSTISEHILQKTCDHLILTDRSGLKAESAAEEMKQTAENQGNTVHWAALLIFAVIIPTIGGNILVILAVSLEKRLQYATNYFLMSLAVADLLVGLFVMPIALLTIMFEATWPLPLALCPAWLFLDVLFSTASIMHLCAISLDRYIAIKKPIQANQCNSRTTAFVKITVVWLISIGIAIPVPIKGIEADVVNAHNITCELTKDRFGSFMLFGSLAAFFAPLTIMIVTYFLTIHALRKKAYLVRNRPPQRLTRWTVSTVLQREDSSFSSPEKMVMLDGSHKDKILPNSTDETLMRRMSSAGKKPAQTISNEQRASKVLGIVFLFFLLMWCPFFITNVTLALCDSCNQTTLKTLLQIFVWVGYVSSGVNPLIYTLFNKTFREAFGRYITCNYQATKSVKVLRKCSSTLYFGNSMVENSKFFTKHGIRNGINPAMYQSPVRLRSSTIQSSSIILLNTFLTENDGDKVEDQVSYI
UniProt P50129, whole entry: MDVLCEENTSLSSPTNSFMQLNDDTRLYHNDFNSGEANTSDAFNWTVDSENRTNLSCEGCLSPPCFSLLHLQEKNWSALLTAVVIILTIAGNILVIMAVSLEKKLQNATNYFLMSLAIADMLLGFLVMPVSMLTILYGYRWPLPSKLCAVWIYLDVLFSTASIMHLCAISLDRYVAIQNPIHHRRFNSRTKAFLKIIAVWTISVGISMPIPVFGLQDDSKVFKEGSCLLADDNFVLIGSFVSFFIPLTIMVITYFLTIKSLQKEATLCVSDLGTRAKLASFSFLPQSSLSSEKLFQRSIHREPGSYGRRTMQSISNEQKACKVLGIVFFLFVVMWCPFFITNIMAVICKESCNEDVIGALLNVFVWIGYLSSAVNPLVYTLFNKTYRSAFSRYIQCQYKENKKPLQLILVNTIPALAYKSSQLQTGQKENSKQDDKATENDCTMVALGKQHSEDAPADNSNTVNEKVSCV

The target in series [1] is 5-HT2B Rezeptoren von Schweinelungenarterien (Sus scrofa, UniProt F1SMV8). Particulars: under physiological conditions; not surmountable by highest 5-HT concentrations; cited from earlier work.
The target of another series is 5-HT2B-Rezeptoren (Rattus norvegicus, UniProt P30994). The note with it: in vitro, isolated rat stomach [Villalon et al. 2003]; cited from earlier work.
In series [2] the target is 5-HT2A Rezeptoren von Schweineherzkranzarterien (Sus scrofa, UniProt P50129). The note with it: cited from earlier work.

In the case of `CCN(CC)C(=O)N[C@H]1C=C2c3cccc4[nH]cc(c34)C[C@H]2N(C)C1` [Lisurid, 3-(9,10-didehydro-6-methylergoline-8alpha-yl)-1,1-diethylurea], the “type of antagonism at the 5-HT2B-Rezeptor” value in series [1] is given as “irreversibler Antagonist”. In addition, the “anti-serotoninerge Potenz” value on 5-HT2B-Rezeptoren was “besonders hohe anti-serotoninerge Potenz”. Further, the “intrinsische agonistische Aktivität” value in series [2] (also at high concentrations) is recorded as “keine intrinsische agonistische Aktivität”. Besides, the “5-HT2A pD'2 -Wert” value in series [2] (footnote a: pD'2 (non-competitive antagonism), footnote c: value from Diss. Jähnichen, FU Berlin, 2005) was 9.40 0.05^a,c. For the same molecule, the “type of antagonism at the 5-HT2A-Rezeptor” value in series [2] (under physiological conditions) is “nicht-kompetitiver Antagonist”.
